From patent publication EP0322251A2, “Benzothiopyran derivatives” (BEECHAM GROUP PLC, priority 1987, dated 1989)
For at least one compound, name, drawing or mass did not settle the structure.

Test system: guinea pig tracheal spiral preparations
Assay: Bronchodilation in vitro; guinea pig tracheal spiral preparations (relaxation of resting tension)
Assay type: cell-based
Details: fall in tension as percentage of total relaxation with 10⁻³M isoprenaline; cumulative dosing 10⁻⁸-2x10⁻⁵M

## Cc1ccc2c(c1)[C@@H](N1CCCCC1=O)[C@H](O)C(C)(C)S2(=O)=O (relative stereo) [Example 3, Trans 3.4-dihydro-4-(2-oxopiperidin-1-yl)-2,2,6-trimethyl-2H-1-benzothiapyran-3-ol-1,1-dioxide]
  In vitro IC₅₀ value: 4.9 x 10⁻⁵ M
